Reference: the supplement of paper PMC12823440, “Inhibitors supercharge kinase turnover through native proteolytic circuits” (Nature, 2025)
Where a name gives a salt, the structure may show the parent alone. The list shows a part of the results. The calls rarely recur for the same compound in another form.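 In K562 cells expressing nanoluciferase-fused kinases, luminescence was recorded at 4 h intervals between 2 and 18 h, normalized as percent of control with DMSO at 100% and a positive control at 0%. A significant (2 sigma) signal drop marks a time point as decreased. The authors' rule for a hit is not shown and takes in more than the number of time points.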

target: EGFR_L858R (UniProt P00533); test: kinase-Nluc reporter destabilization hit call (1 = scored as downregulated) (binary); higher = compound decreases kinase abundance; details: 2.5 µM; K562; 2-18 h

kinase-Nluc reporter destabilization hit call, inactive:
C[C@H](Nc1cc(-c2cnn(C)c2)cc(Nc2cnccn2)n1)c1ccc(F)cc1 [Ilginatinib hydrochloride] 0
Cc1cccc(/C=N/Nc2cc(N3CCOCC3)nc(OCCc3ccccn3)n2)c1 [Apilimod] 0
Cc1ccc(NC(=O)c2ccc(CN3CCN(C)CC3)cc2)cc1Nc1nc(-c2cccnc2)cs1 [Masitinib (mesylate)] 0
COc1cc2nccc(Oc3ccc(NC(=O)C4(C(=O)Nc5ccc(F)cc5)CC4)cc3)c2cc1OC [Cabozantinib] 0
Cc1cccc(-c2[nH]c(CNc3ccccc3F)nc2-c2ccc3ncnn3c2)n1 [Vactosertib (Hydrochloride)] 0
CC(C)Oc1ccc(-c2nn([C@@H](C)c3oc4ccc(F)cc4c(=O)c3-c3cccc(F)c3)c3ncnc(N)c23)cc1F [Umbralisib (hydrochloride)] 0
CN(C)C(=O)c1cc2cnc(Nc3ccc(N4CCNCC4)cn3)nc2n1C1CCCC1 [Ribociclib succinate hydrate] 0
O=C(Nc1ccncc1)Nc1ccc(-c2nc(N3CCOCC3)nc(N3C4CCC3COC4)n2)cc1 [PKI-179 (hydrochloride)] 0
C=CC(=O)Nc1cc(Nc2nccc(-c3cn(C4CC4)c4ccccc34)n2)c(OC)cc1N(C)CCN(C)C [Almonertinib (hydrochloride)] 0
C=CC(=O)Nc1cc2c(Nc3ccc(F)c(Cl)c3)ncnc2cc1C#CC(C)(C)N1CCN(C)CC1 [AV-412 (free base)] 0
CNC(=O)c1cc(Oc2ccc(NC(=O)Nc3ccc(Cl)c(C(F)(F)F)c3)c(F)c2)ccn1 [Regorafenib] 0

Two records picked at random from the list so far:
kinase-Nluc reporter destabilization hit call, inactive:
C[C@H](Nc1cc(-c2cnn(C)c2)cc(Nc2cnccn2)n1)c1ccc(F)cc1 [Ilginatinib hydrochloride] 0
CC(C)Oc1ccc(-c2nn([C@@H](C)c3oc4ccc(F)cc4c(=O)c3-c3cccc(F)c3)c3ncnc(N)c23)cc1F [Umbralisib (hydrochloride)] 0
